Experimental data: PubChem BioAssay AID1259254 (NCATS, 2017)
This is one part, drawn at random, of about 59,000 reagents tested. About 1,550 of all reagents (2.6%) count as active. 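G2 share is only a proxy for re-replication; each gene was hit by three separate siRNAs, and active genes were retested.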 The numbers tell different reagents against one gene apart. Further read-outs or replicates are left out here. No sequences are given here. The record does not give: the amount of reagent.

Aim: 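Gene knock-downs that lead to re-replication, shown by excess G2 DNA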 (primary screen)
System: human HCT116 colorectal cancer cells
Knock-down reagent: single siRNA against human genes
Timing: 3 days
Measurement: 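Nuclei stained with Hoechst and imaged; cell-cycle phase assigned by DNA content; G2 share scaled per plate, non-targeting siRNA 0%, GMNN siRNA 100%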
Reading the numbers: G2 robust z-score: higher = more G2 cells, more excess DNA replication
Rule for the call: 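Active siRNAs have a G2 robust z of 5 or more median absolute deviations over the median, which in these data means about 38% or higher of GMNN control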

G2 robust z-score, by gene and reagent
BHLHE41: #1 1.11 inactive; #2 0.566 inactive; #3 0.731 inactive
NEUROD1: #1 0.728 inactive; #2 -0.303 inactive; #3 -1.12 inactive
ATXN7: #1 -0.174 inactive; #2 -0.723 inactive; #3 -0.784 inactive
OARD1: #1 1.56 inactive; #2 0.185 inactive; #3 0.526 inactive
GLCE: #1 -0.699 inactive; #2 -0.806 inactive; #3 4.77 inactive
TWF1: #1 -1.09 inactive; #2 -0.721 inactive; #3 0.7 inactive
OGFRL1: #1 -0.471 inactive; #2 0.883 inactive; #3 0.696 inactive
SLC44A2: #1 -0.505 inactive; #2 0.56 inactive; #3 -0.228 inactive
TTC5: #1 -0.542 inactive; #2 8.22 active; #3 1.64 inactive
WNT9B: #1 1.7 inactive; #2 0.247 inactive; #3 -0.875 inactive
ROM1: #1 -1.64 inactive; #2 0.341 inactive; #3 3.79 inactive
RANGAP1: #1 1.28 inactive; #2 -0.35 inactive; #3 3.17 inactive
OR14A16: #1 -0.678 inactive; #2 -0.439 inactive; #3 -0.705 inactive
WDR74: #1 3.58 inactive; #2 0.162 inactive; #3 1.63 inactive
UGT8: #1 -0.119 inactive; #2 -0.665 inactive; #3 1.44 inactive
SLC38A3: #1 0.181 inactive; #2 -1.13 inactive; #3 -0.505 inactive
LINC01249: #1 1.82 inactive; #2 0.345 inactive; #3 0.693 inactive
KRT37: #1 0.772 inactive; #2 -0.505 inactive; #3 -0.473 inactive
OR2AE1: #1 -0.518 inactive; #2 1 inactive; #3 0.469 inactive
PRX: #1 -0.466 inactive; #2 -0.491 inactive; #3 -1.09 inactive
GJC1: #1 -0.205 inactive; #2 -0.373 inactive; #3 0.409 inactive
CIAO3: #1 1.28 inactive; #2 -1.05 inactive; #3 0.607 inactive
TNFSF15: #1 0.0909 inactive; #2 1.4 inactive; #3 0.538 inactive
